This series is described as follows: physchem. As to conditions: buffer.

Converted amounts (≈) assume the structure as drawn.

Broadly, the solubility is the dissolved amount per volume that the medium holds. The low end stands for a poorly soluble substance, the high end for a readily soluble substance.

`Nc1nc(Nc2ccc(Oc3ccnc4[nH]ccc34)c(F)c2)cc(-c2ccncc2)n1` registered a solubility of 3 µg/mL (≈ 7.26 µM).

(Values after ChEMBL document CHEMBL5715943, “Design and synthesis of potent and selective azaindole-based Rho kinase (ROCK) inhibitors” (ChemMedChem, 2008).)
